The source of these data is the supplement of paper PMC11150407.

The cell viability is a read-out of living cells in per cent, often relative to untreated cells.

Each structure is given as a SMILES string. Among all 2,100 compounds or so, about 180 (8.6%) showed an effect of 50% or more. The list shows a part of the results.

The assay concerns MOLM1 and UCSD/AML1 (averaged). Description: cell viability relative to DMSO control (POC); higher = less growth inhibition. As to conditions: 1 µM; 72 h. As for the experimental part: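 Primary viability screen in the 3q26 EVI1-high AML cell lines MOLM1 and UCSD/AML1 (1.5e3 cells/well, 384-well), compounds at 1 uM for 72 h. ATP CellTiter-Glo read-out given as percent of viable cells over DMSO control (POC), averaged over duplicates. DMSO was the negative control and 5 uM etoposide the positive control. This mapping covers the MicroSource Spectrum and Selleck anticancer libraries (drug names).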
As for `CCn1cc(C(=O)O)c(=O)c2cc(F)c(N3CCN(C)CC3)cc21`, the cell viability worked out at 51.4%. Consider `C[C@@H]1O[C@@H]1P(=O)(O)O`, for which the cell viability was 95%.

`C[C@]12C=CC(=O)C=C1CC[C@@H]1[C@@H]2C(=O)C[C@@]2(C)[C@H]1CC[C@]2(O)C(=O)CO`: the cell viability turned out to be 94.2%. `C[C@]12C=CC(=O)C=C1CC[C@@H]1[C@@H]2C(=O)C[C@@]2(C)[C@H]1CC[C@]2(O)C(=O)CO` [Prednisone (Adasone)]: the cell viability was found to be 81.9%. Then `CCOC(=O)CCC(=O)O[C@H]1[C@H](O[C@@H]2[C@@H](C)[C@H](O[C@H]3C[C@@](C)(OC)[C@@H](O)[C@H](C)O3)[C@@H](C)C(=O)O[C@H](CC)[C@@](C)(O)[C@H](O)[C@@H](C)C(=O)[C@H](C)C[C@@]2(C)O)O[C@H](C)C[C@@H]1N(C)C`, with 86%; and `CCn1cc(C(=O)O)c(=O)c2cc(F)c(N3CCNC(C)C3)c(F)c21` (centres undefined), with 102%. Regarding `CS(=O)(=O)Nc1ccc([N+](=O)[O-])cc1Oc1ccccc1`, the cell viability worked out at 96.7%. For `O=C(O)C1=CCNCC1` the value was 102%; for `CNC(=C[N+](=O)[O-])NCCSCc1csc(CN(C)C)n1`, 97.4%.

On to `OC(Cn1cncn1)(Cn1cncn1)c1ccc(F)cc1F`, for which the cell viability came out at 95.1%. Then `NCCc1c[nH]cn1`, with 101%; and `Nc1[nH]cnc2ncnc1-2`, with 88.6%; and `CC(=O)[C@@]1(O)CC[C@H]2[C@@H]3C=C(Cl)C4=CC(=O)[C@@H]5C[C@@H]5[C@]4(C)[C@H]3CC[C@@]21C`, with 87.5%. For `CC(=O)Nc1cccc(-n2c(=O)n(C3CC3)c(=O)c3c(Nc4ccc(I)cc4F)n(C)c(=O)c(C)c32)c1` the value was 27.3%; for `Cc1cn[nH]c1`, 101%. Then `FC(F)(F)C(Cl)Br` (centres undefined), with 95.2%; and `O=C(O)CN1C(=O)c2cccc3cccc(c23)C1=O`, with 103%; and `CC(=O)O[C@@H]1C[C@H]2C(C)(C)[C@@H](O)CC[C@]2(C)[C@H]2CC[C@@]3(C)[C@H](c4ccoc4)OC(=O)[C@H]4O[C@]43[C@@]21C` [beta-DIHYDROGEDUNOL], with 90.3%.

As for `CCCCN(CCCC)CCCOC(=O)c1ccc(N)cc1`, the cell viability came to 103%.

On to `Cc1ccc(C(=O)c2ccc(CC(=O)O)n2C)cc1`, for which the cell viability came to 107%. Consider `COC(=O)Nc1nc2cc(C(=O)c3cccs3)ccc2[nH]1` [Nocodazole], for which the cell viability is 13.3%. For `CC(=O)OCC(=O)[C@@]1(O)CC[C@H]2[C@@H]3CCC4=CC(=O)CC[C@]4(C)[C@@]3(F)[C@@H](O)C[C@@]21C` the value was 102%. With `O=C(O)CCCCCCCC(=O)O`, the cell viability was 92.1%.

Consider `CCCCCCCCCCCCCCCC(=O)OC/C=C(C)/C=C/C=C(C)/C=C/C1=C(C)CCCC1(C)C`, for which the cell viability worked out at 100%. In the case of `CC(C)(C)c1cnc(CSc2cnc(NC(=O)C3CCNCC3)s2)o1`, the cell viability was 2.81%. With `NS(=O)(=O)c1cc(C2(O)NC(=O)c3ccccc32)ccc1Cl` (centres undefined), the cell viability turned out to be 100%. For the compound `Cc1ncc(C[n+]2csc(CCO)c2C)c(N)n1`, the cell viability stood at 107%. In the case of `CC(C)c1c(C(=O)Nc2ccccc2)c(-c2ccccc2)c(-c2ccc(F)cc2)n1CC[C@@H](O)C[C@@H](O)CC(=O)O`, the cell viability came to 95.5%.

As to `CC(=O)OCC(=O)[C@@]1(O)CC[C@H]2[C@@H]3CCC4=CC(=O)CC[C@]4(C)[C@H]3[C@@H](O)C[C@@]21C`, the cell viability came out at 86%. `CCCc1cc(C(N)=S)ccn1`: the cell viability is 107%.

Take `C#Cc1cccc(Nc2ncnc3cc(OC)c(OCCCCCCC(=O)NO)cc23)c1`: the cell viability was found to be 22.2%.

Consider `CC(=O)S[C@@H]1CC2=CC(=O)CC[C@]2(C)[C@H]2CC[C@@]3(C)[C@@H](CC[C@@]34CCC(=O)O4)[C@H]12`, for which the cell viability turned out to be 98.5%. Turning to `CC(Cc1cccc(C(F)(F)F)c1)NCCOC(=O)c1ccccc1` (centres undefined), the cell viability turned out to be 111%. Turning to `C=C1CC[C@H](O)C/C1=C/C=C1\CCC[C@]2(C)[C@@H]([C@H](C)CCCC(C)C)CC[C@@H]12`, the cell viability is 109%. With `NNCCc1ccccc1`, the cell viability stood at 112%.

Turning to `CC(C)(CO)[C@@H](O)C(=O)NCCC(=O)NCCSSCCNC(=O)CCNC(=O)[C@H](O)C(C)(C)CO`, the cell viability is 103%.

With `C[C@H]1O[C@H](O[C@H]2[C@H](O)[C@@H](O)[C@@H](O[C@H]3[C@H](O)[C@@H](O)C(O)O[C@@H]3CO)O[C@@H]2CO)[C@H](O)[C@@H](O)[C@@H]1N[C@H]1C=C(CO)[C@@H](O)[C@H](O)[C@H]1O` (some centres undefined), the cell viability amounted to 87.3%. Then `CN1CCN(CC/C=C2/c3ccccc3Sc3ccc(S(=O)(=O)N(C)C)cc32)CC1`, with 119%; and `CN1CCC(=C2c3ccccc3C=Cc3ccccc32)CC1`, with 87%. For `COc1ccc2c(=O)c(OC)c(-c3ccccc3)oc2c1`, the cell viability came to 89.8%. For `N=C(N)NC(=N)NCCc1ccccc1` the value was 86.5%. Then `CC(=O)OCC(=O)[C@@]1(O)[C@@H](C)C[C@H]2[C@@H]3CCC4=CC(=O)C=C[C@]4(C)[C@@]3(F)[C@@H](O)C[C@@]21C`, with 70.1%; and `CC(=O)Oc1ccc2c(c1OC(C)=O)OCC1(O)Cc3c(cc(OC(C)=O)c(OC(C)=O)c3OC(C)=O)C21` (centres undefined), with 108%; and `CC[C@H](/C=C/[C@@H](C)[C@H]1CC[C@H]2[C@@H]3CC=C4C[C@@H](O)CC[C@]4(C)[C@H]3CC[C@]12C)C(C)C`, with 107%. For `O=C(O)c1cn(-c2ccc(F)cc2)c2cc(N3CCNCC3)c(F)cc2c1=O` the value was 103%; for `C[N+]1(C)CCC(OC(=O)C(O)(c2ccccc2)C2CCCC2)C1` (centres undefined), 98.8%.

Turning to `CCCCCCCCCCCCCCCCCCOCC(O)CO` (centres undefined), the cell viability was determined as 85%. As to `N#Cc1ccc(C(c2ccc(C#N)cc2)n2cncn2)cc1` [Letrozole], the cell viability was 96.4%.

With `CCCCCc1c2c(cc(O)c1C(=O)O)OC(=O)c1c(cc(OC)cc1C(=O)CCCC)O2`, the cell viability stood at 114%.

Turning to `COc1c2occc2cc2ccc(=O)oc12`, the cell viability is 95.5%. For `N=C(NCCCCCCNC(=N)NC(=N)Nc1ccc(Cl)cc1)NC(=N)Nc1ccc(Cl)cc1` the value was 102%; for `COC(=O)c1cc(O)c(=O)c2c(O)c(O)ccc2c1`, 109%. Then `Oc1cc(O)c2c(c1)O[C@H](c1ccc(O)c(O)c1)[C@@H](O)C2`, with 99.3%; and `CCN(CC)CCOC(=O)C1(C2CCCCC2)CCCCC1`, with 89.7%. With `O=c1cc(-c2ccccc2)oc2c(O)c(O)ccc12`, the cell viability worked out at 96.2%. On to `COc1ccc([C@@H]2CC(=O)c3c(O)cc(O)cc3O2)cc1O`, for which the cell viability stood at 108%.

Take `CN(C)CCCN1c2ccccc2Sc2ccc(C(F)(F)F)cc21`: the cell viability worked out at 92.6%. `COc1ccc(-c2ccc3c(N4CCOC[C@@H]4C)nc(N4CCOC[C@@H]4C)nc3n2)cc1CO`: the cell viability came out at 23.6%. In the case of `Cc1ccc(N(CC2=NCCN2)c2cccc(O)c2)cc1`, the cell viability was 88.5%.
